Measurements taken from article PMC9066866.
These are yes or no findings as the source states them, for the method shown. Binding seen in cells or lysates may run through a third protein. Some entries that bind do so weakly or less than the wild type.

The chains behind the UniProt entries cited, without tags or fusion partners.
UniProt Q96FF9: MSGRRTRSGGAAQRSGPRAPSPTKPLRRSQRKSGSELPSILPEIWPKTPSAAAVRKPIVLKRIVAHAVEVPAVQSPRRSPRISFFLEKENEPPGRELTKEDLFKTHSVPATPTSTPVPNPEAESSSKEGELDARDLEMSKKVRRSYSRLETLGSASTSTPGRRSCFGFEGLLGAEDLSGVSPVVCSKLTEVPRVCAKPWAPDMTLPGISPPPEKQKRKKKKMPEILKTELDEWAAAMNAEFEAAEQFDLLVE

Biological target: Triosephosphate isomerase 1 (TPI1) (human (endogenous in MDA-MB-231 and T47D)) (UniProt P60174)
Test: co-IP; antibodies (TPI1, CDCA5 or P62) on protein A/G magnetic beads at 4 °C for 1 h, then incubated with cell lysates; western blot of the precipitate; TPI1 with P62 in MDA-MB-231 and T47D cells

| binding | Substance |
| --- | --- |
| binds | Cell division cycle associated 5 (CDCA5) (from UniProt Q96FF9 1-252) |
| binds | Sequestosome-1 (SQSTM1)/P62 (from UniProt Q13501 1-440) |
